In paper PMC3303783:
These are yes or no findings as the source states them, for the method shown. Binding seen in cells or lysates may run through a third protein. A yes stands for co-enrichment or nearness to the bait. Other partners may have been found. Sequences can lack the tags named with a protein.

T1: Noc4p-TAP (chromosome encoded C-terminal TAP-fusion allele of Noc4p) (S. cerevisiae) (UniProt Q06512)
T1 sequence: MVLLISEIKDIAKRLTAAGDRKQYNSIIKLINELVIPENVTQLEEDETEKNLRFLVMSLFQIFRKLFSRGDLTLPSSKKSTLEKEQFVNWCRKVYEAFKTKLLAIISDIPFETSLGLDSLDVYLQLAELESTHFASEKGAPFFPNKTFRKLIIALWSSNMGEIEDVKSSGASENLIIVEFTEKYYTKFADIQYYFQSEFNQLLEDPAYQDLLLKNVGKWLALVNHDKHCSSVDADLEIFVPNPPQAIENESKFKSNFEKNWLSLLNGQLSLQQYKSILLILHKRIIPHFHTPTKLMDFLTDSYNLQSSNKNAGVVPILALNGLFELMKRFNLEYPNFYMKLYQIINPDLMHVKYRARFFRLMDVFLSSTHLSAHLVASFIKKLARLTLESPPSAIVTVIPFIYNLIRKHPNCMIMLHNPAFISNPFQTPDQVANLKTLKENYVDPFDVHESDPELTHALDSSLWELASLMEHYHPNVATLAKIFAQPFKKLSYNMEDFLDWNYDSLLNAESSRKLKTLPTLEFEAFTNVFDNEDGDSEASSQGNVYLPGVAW

T2: Utp4p-TAP (chromosome encoded TAP tagged Utp4p, UTP-A component) (S. cerevisiae) (UniProt Q06679)
T2 sequence: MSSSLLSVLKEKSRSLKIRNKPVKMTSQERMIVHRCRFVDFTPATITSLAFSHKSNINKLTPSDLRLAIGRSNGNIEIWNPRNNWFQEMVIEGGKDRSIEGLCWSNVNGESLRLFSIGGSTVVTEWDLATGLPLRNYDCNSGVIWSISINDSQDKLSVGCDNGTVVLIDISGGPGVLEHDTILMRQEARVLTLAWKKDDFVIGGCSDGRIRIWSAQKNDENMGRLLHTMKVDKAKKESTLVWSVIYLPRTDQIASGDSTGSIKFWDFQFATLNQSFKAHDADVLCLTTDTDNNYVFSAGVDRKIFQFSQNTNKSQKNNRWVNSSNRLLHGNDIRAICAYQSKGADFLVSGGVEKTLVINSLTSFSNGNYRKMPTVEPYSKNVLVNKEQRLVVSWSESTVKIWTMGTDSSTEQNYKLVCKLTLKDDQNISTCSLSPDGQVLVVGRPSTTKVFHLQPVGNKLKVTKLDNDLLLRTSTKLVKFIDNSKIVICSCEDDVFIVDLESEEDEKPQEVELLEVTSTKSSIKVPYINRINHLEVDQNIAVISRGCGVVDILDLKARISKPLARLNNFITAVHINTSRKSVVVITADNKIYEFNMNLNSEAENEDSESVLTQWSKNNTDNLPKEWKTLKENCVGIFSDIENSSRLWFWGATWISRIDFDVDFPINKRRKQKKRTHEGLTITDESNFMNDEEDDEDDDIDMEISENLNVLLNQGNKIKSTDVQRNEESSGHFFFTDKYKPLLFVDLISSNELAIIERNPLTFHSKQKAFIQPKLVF


Target: T1, Noc4p-TAP (chromosome encoded C-terminal TAP-fusion allele of Noc4p) (S. cerevisiae)
Test: affinity purification with mass spectrometry; Noc4p-TAP affinity purified on IgG coupled magnetic beads from yeast cellular extracts (MB buffer: 20 mM Tris-HCl pH 8, 200 mM KCl, 5 mM MgOAc, 0.5% Triton X-100, 0.1% Tween 20, 4°C); eluate digested with trypsin, iTRAQ labelled, LC-MALDI-TOF/TOF; wildtype cells compared with cells depleted of rpS5, rpS13 or rpS22 (4 h glucose)

Row | binding | Binder
1 | binds | Nop14p/Noc5p (protein, UniProt Q99207 1-810) MAGSQLKNLKAALKARGLTGQTNVKSKNKKNSKRQAKEYDREEKKKAIAEIREEFNPFEIKAARNKRRDGLPSKTADRIAVGKPGISKQIGEEQRKRAFEARKMMKNKRGGVIDKRFGERDKLLTEEEKMLERFTRERQSQSKRNANLFNLEDDEDDGDMFGDGLTHLGQSLSLEDELANDEEDFLASKRFNEDDAELQQPQRKKTKAEVMKEVIAKSKFYKQERQKAQGIMEDQIDNLDDNFEDVMSELMMTQPKKNPMEPKTDLDKEYDIKVKELQLDKRAAPSDRTKTEEEKNAEAEEKKRELEQQRLDRMNGMIELEEGEERGVEDLDDGFWENEEDYEDDNDGIADSDDDIKFEDQGRDEGFSQILKKKNISISCPRTHDALLDQVKKLDLDDHPKIVKNIIKAYQPKLAEGNKEKLGKFTAVLLRHIIFLSNQNYLKNVQSFKRTQNALISILKSLSEKYNRELSEECRDYINEMQARYKKNHFDALSNGDLVFFSIIGILFSTSDQYHLVITPALILMSQFLEQIKFNSLKRIAFGAVLVRIVSQYQRISKRYIPEVVYFFQKILLTFIVEKENQEKPLDFENIRLDSYELGLPLDVDFTKKRSTIIPLHTLSTMDTEAHPVDQCVSVLLNVMESLDATISTVWKSLPAFNEIILPIQQLLSAYTSKYSDFEKPRNILNKVEKLTKFTEHIPLALQNHKPVSIPTHAPKYEENFNPDKKSYDPDRTRSEINKMKAQLKKERKFTMKEIRKDAKFEARQRIEEKNKESSDYHAKMAHIVNTINTEEGAEKNKYERERKLRGGKK

Target: T2, Utp4p-TAP (chromosome encoded TAP tagged Utp4p, UTP-A component) (S. cerevisiae)
Test: affinity purification with mass spectrometry; Utp4p-TAP affinity purified on IgG coupled magnetic beads from yeast cellular extracts (MB buffer: 20 mM Tris-HCl pH 8, 200 mM KCl, 5 mM MgOAc, 0.5% Triton X-100, 0.1% Tween 20, 4°C); eluate digested with trypsin, iTRAQ labelled, LC-MALDI-TOF/TOF; wildtype cells compared with cells depleted of rpS5, rpS13 or rpS14 (4 h glucose); fractions are taken as early pre-ribosomes, which hold pre-rRNA

Row | binding | Binder
2 | binds | Noc4p (protein, UniProt Q06512 1-552) MVLLISEIKDIAKRLTAAGDRKQYNSIIKLINELVIPENVTQLEEDETEKNLRFLVMSLFQIFRKLFSRGDLTLPSSKKSTLEKEQFVNWCRKVYEAFKTKLLAIISDIPFETSLGLDSLDVYLQLAELESTHFASEKGAPFFPNKTFRKLIIALWSSNMGEIEDVKSSGASENLIIVEFTEKYYTKFADIQYYFQSEFNQLLEDPAYQDLLLKNVGKWLALVNHDKHCSSVDADLEIFVPNPPQAIENESKFKSNFEKNWLSLLNGQLSLQQYKSILLILHKRIIPHFHTPTKLMDFLTDSYNLQSSNKNAGVVPILALNGLFELMKRFNLEYPNFYMKLYQIINPDLMHVKYRARFFRLMDVFLSSTHLSAHLVASFIKKLARLTLESPPSAIVTVIPFIYNLIRKHPNCMIMLHNPAFISNPFQTPDQVANLKTLKENYVDPFDVHESDPELTHALDSSLWELASLMEHYHPNVATLAKIFAQPFKKLSYNMEDFLDWNYDSLLNAESSRKLKTLPTLEFEAFTNVFDNEDGDSEASSQGNVYLPGVAW
3 | binds | Rrp7p (protein, UniProt P25368 1-297) MGIEDISAMKNGFIVVPFKLPDHKALPKSQEASLHFMFAKRHQSSNSNESDCLFLVNLPLLSNIEHMKKFVGQLCGKYDTVSHVEELLYNDEFGLHEVDLSALTSDLMSSTDVNEKRYTPRNTALLKFVDAASINNCWNALKKYSNLHAKHPNELFEWTYTTPSFTTFVNFYKPLDIDYLKEDIHTHMAIFEQREAQAQEDVQSSIVDEDGFTLVVGKNTKSLNSIRKKILNKNPLSKHENKAKPISNIDKKAKKDFYRFQVRERKKQEINQLLSKFKEDQERIKVMKAKRKFNPYT
4 | binds | Utp22p (protein, UniProt P53254 1-1237) MATSVKRKASETSDQNIVKVQKKHSTQDSTTDNGSKENDHSSQAINERTVPEQENDESDTSPESNEVATNTAATRHNGKVTATESYDIHIARETAELFKSNIFKLQIDELLEQVKLKQKHVLKVEKFLHKLYDILQEIPDWEEKSLAEVDSFFKNKIVSVPFVDPKPIPQNTNYKFNYKKPDISLIGSFALKAGIYQPNGSSIDTLLTMPKELFEKKDFLNFRCLHKRSVYLAYLTHHLLILLKKDKLDSFLQLEYSYFDNDPLLPILRISCSKPTGDSLSDYNFYKTRFSINLLIGFPYKVFEPKKLLPNRNCIRIAQESKEQSLPATPLYNFSVLSSSTHENYLKYLYKTKKQTESFVEATVLGRLWLQQRGFSSNMSHSGSLGGFGTFEFTILMAALLNGGGINSNKILLHGFSSYQLFKGVIKYLATMDLCHDGHLQFHSNPENSSSSPASKYIDEGFQTPTLFDKSTKVNILTKMTVSSYQILKEYAGETLRMLNNVVQDQFSNIFLTNISRFDNLKYDLCYDVQLPLGKYNNLETSLAATFGSMERVKFITLENFLAHKITNVARYALGDRIKYIQIEMVGQKSDFPITKRKVYSNTGGNHFNFDFVRVKLIVNPSECDKLVTKGPAHSETMSTEAAVFKNFWGIKSSLRRFKDGSITHCCVWSTSSSEPIISSIVNFALQKHVSKKAQISNETIKKFHNFLPLPNLPSSAKTSVLNLSSFFNLKKSFDDLYKIIFQMKLPLSVKSILPVGSAFRYTSLCQPVPFAYSDPDFFQDVILEFETSPKWPDEITSLEKAKTAFLLKIQEELSANSSTYRSFFSRDESIPYNLEIVTLNILTPEGYGFKFRVLTERDEILYLRAIANARNELKPELEATFLKFTAKYLASVRHTRTLENISHSYQFYSPVVRLFKRWLDTHLLLGHITDELAELIAIKPFVDPAPYFIPGSLENGFLKVLKFISQWNWKDDPLILDLVKPEDDIRDTFETSIGAGSELDSKTMKKLSERLTLAQYKGIQMNFTNLRNSDPNGTHLQFFVASKNDPSGILYSSGIPLPIATRLTALAKVAVNLLQTHGLNQQTINLLFTPGLKDYDFVVDLRTPIGLKSSCGILSATEFKNITNDQAPSNFPENLNDLSEKMDPTYQLVKYLNLKYKNSLILSSRKYIGVNGGEKGDKNVITGLIKPLFKGAHKFRVNLDCNVKPVDDENVILNKEAIFHEIAAFGNDMVINFETD
5 | binds | RNA helicase Rok1p (protein, UniProt P45818 1-564) MDIFRVLTRGASVKKESGPKAKAADYSVINGNDENHKEDNNESQIVKELDFFRNKRIISKVEDDREKTTENDSPNKEEKSGNDDGLIKPVITNTVEASALRKSYKGNVSGIDIPLPIGSFEDLISRFSFDKRLLNNLIENGFTEPTPIQCECIPVALNNRDVLACGPTGSGKTLAFLIPLVQQIIDDKQTAGLKGLIISPTKELANQIFIECFKLSYKIFLEKKRPLQVALLSKSLGAKLKNKVVSDKKYDIIISTPLRLIDVVKNEALDLSKVKHLIFDEADKLFDKTFVEQSDDILSACREPSLRKAMFSATIPSNVEEIAQSIMMDPVRVIIGHKEAANTNIEQKLIFCGNEEGKLIAIRQLVQEGEFKPPIIIFLESITRAKALYHELMYDRINVDVIHAERTALQRDRIIERFKTGELWCLICTDVLARGIDFKGVNLVINYDVPGSSQAYVHRIGRTGRGGRSGKAITFYTKQDSVAIKPIINVMKQSGCEVSEWMDKMAKMTRKEKESIKNGKAHKERKQITTVPKMDKAKRRRQQEMIAASKRRKNEELSKKHFSK
6 | binds | Nop14p/Noc5p (protein, UniProt Q99207 1-810) MAGSQLKNLKAALKARGLTGQTNVKSKNKKNSKRQAKEYDREEKKKAIAEIREEFNPFEIKAARNKRRDGLPSKTADRIAVGKPGISKQIGEEQRKRAFEARKMMKNKRGGVIDKRFGERDKLLTEEEKMLERFTRERQSQSKRNANLFNLEDDEDDGDMFGDGLTHLGQSLSLEDELANDEEDFLASKRFNEDDAELQQPQRKKTKAEVMKEVIAKSKFYKQERQKAQGIMEDQIDNLDDNFEDVMSELMMTQPKKNPMEPKTDLDKEYDIKVKELQLDKRAAPSDRTKTEEEKNAEAEEKKRELEQQRLDRMNGMIELEEGEERGVEDLDDGFWENEEDYEDDNDGIADSDDDIKFEDQGRDEGFSQILKKKNISISCPRTHDALLDQVKKLDLDDHPKIVKNIIKAYQPKLAEGNKEKLGKFTAVLLRHIIFLSNQNYLKNVQSFKRTQNALISILKSLSEKYNRELSEECRDYINEMQARYKKNHFDALSNGDLVFFSIIGILFSTSDQYHLVITPALILMSQFLEQIKFNSLKRIAFGAVLVRIVSQYQRISKRYIPEVVYFFQKILLTFIVEKENQEKPLDFENIRLDSYELGLPLDVDFTKKRSTIIPLHTLSTMDTEAHPVDQCVSVLLNVMESLDATISTVWKSLPAFNEIILPIQQLLSAYTSKYSDFEKPRNILNKVEKLTKFTEHIPLALQNHKPVSIPTHAPKYEENFNPDKKSYDPDRTRSEINKMKAQLKKERKFTMKEIRKDAKFEARQRIEEKNKESSDYHAKMAHIVNTINTEEGAEKNKYERERKLRGGKK
